The labels stand for the following.
B1: DEAH (Asp-Glu-Ala-Asp/His) box polypeptide 57 (protein, UniProt Q6P158-1 1-1386)
chain: MSSSVRRKGKPGKGGGKGSSRGGRGGRSHASKSHGSGGGGGGGGGGGGGNRKASSRIWDDGDDFCIFSESRRPSRPSNSNISKGESRPKWKPKAKVPLQTLHMTSENQEKVKALLRDLQEQDADAGSERGLSGEEEDDEPDCCNDERYWPAGQEPSLVPDLDPLEYAGLASVEPYVPEFTVSPFAVQKLSRYGFNTERCQAVLRMCDGDVGASLEHLLTQCFSETFGERMKISEAVNQISLDECMEQRQEEAFALKSICGEKFIERIQNRVWTIGLELEYLTSRFRKSKPKESTKNVQENSLEICKFYLKGNCKFGSKCRFKHEVPPNQIVGRIERSVDDSHLNAIEDASFLYELEIRFSKDHKYPYQAPLVAFYSTNENLPLACRLHISEFLYDKALTFAETSEPVVYSLITLLEEESEIVKLLTNTHHKYSDPPVNFLPVPSRTRINNPACHKTVIPNNSFVSNQIPEVEKASESEESDEDDGPAPVIVENESYVNLKKKISKRYDWQAKSVHAENGKICKQFRMKQASRQFQSILQERQSLPAWEERETILNLLRKHQVVVISGMTGCGKTTQIPQFILDDSLNGPPEKVANIICTQPRRISAISVAERVAKERAERVGLTVGYQIRLESVKSSATRLLYCTTGVLLRRLEGDTALQGVSHIIVDEVHERTEESDFLLLVLKDIVSQRPGLQVILMSATLNAELFSDYFNSCPVITIPGRTFPVDQFFLEDAIAVTRYVLQDGSPYMRSMKQISKEKLKARRNRTAFEEVEEDLRLSLHLQDQDSVKDAVPDQQLDFKQLLARYKGVSKSVIKTMSIMDFEKVNLELIEALLEWIVDGKHSYPPGAILVFLPGLAEIKMLYEQLQSNSLFNNRRSNRCVIHPLHSSLSSEEQQAVFVKPPAGVTKIIISTNIAETSITIDDVVYVIDSGKMKEKRYDASKGMESLEDTFVSQANALQRKGRAGRVASGVCFHLFTSHHYNHQLLKQQLPEIQRVPLEQLCLRIKILEMFSAHNLQSVFSRLIEPPHTDSLRASKIRLRDLGALTPDERLTPLGYHLASLPVDVRIGKLMLFGSIFRCLDPALTIAASLAFKSPFVSPWDKKEEANQKKLEFAFANSDYLALLQAYKGWQLSTKEGVRASYNYCRQNFLSGRVLQEMASLKRQFTELLSDIGFAREGLRAREIEKRAQGGDGVLDATGEEANSNAENPKLISAMLCAALYPNVVQVKSPEGKFQKTSTGAVRMQPKSAELKFVTKNDGYVHIHPSSVNYQVRHFDSPYLLYHEKIKTSRVFIRDCSMVSVYPLVLFGGGQVNVQLQRGEFVVSLDDGWIRFVAASHQVAELVKELRCELDQLLQDKIKNPSIDLCTCPRGSRIISTIVKLVTTQ
B2: Chaperonin containing TCP1, subunit 2 (beta) (protein, UniProt P78371-2 1-488)
chain: MDKILLSSGRDASLMVTNDGATILKNIGVDNPAAKVLVDMSRVQDDEVGDGTTSVTVLAAELLREAESLIAKKIHPQTIIAGWREATKAAREALLSSAVDHGSDEVKFRQDLMNIAGTTLSSKLLTHHKDHFTKLAVEAVLRLKGSGNLEAIHIIKKLGGSLADSYLDEGFLLDKKIGVNQPKRIENAKILIANTGMDTDKIKIFGSRVRVDSTAKVAEIEHAEKEKMKEKVERILKHGINCFINRQLIYNYPEQLFGAAGVMAIEHADFAGVERLALVTGGEIASTFDHPELVKLGSCKLIEEVMIGEDKLIHFSGVALGEACTIVLRGATQQILDEAERSLHDALCVLAQTVKDSRTVYGGGCSEMLMAHAVTQLANRTPGKEAVAMESYAKALRMLPTIIADNAGYDSADLVAQLRAAHSEGNTTAGLDMREGTIGDMAILGITESFQVKRQVLLSAAEAAEVILRVDNIIKAAPRKRVPDHHPC
B3: DEAH (Asp-Glu-Ala-His) box polypeptide 30 (protein, UniProt Q7L2E3-3 1-1155)
chain: MAASRDLLKEFPQPKNLLNSVIGRALGISHAKDKLVYVHTNGPKKKKVTLHIKWPKSVEVEGYGSKKIDAERQAAAAACQLFKGWGLLGPRNELFDAAKYRVLADRFGSPADSWWRPEPTMPPTSWRQLNPESIRPGGPGGLSRSLGREEEEDEEEELEEGTIDVTDFLSMTQQDSHAPLRDSRGSSFEMTDDDSAIRALTQFPLPKNLLAKVIQIATSSSTAKNLMQFHTVGTKTKLSTLTLLWPCPMTFVAKGRRKAEAENKAAALACKKLKSLGLVDRNNEPLTHAMYNLASLRELGETQRRPCTIQVPEPILRKIETFLNHYPVESSWIAPELRLQSDDILPLGKDSGPLSDPITGKPYVPLLEAEEVRLSQSLLELWRRRGPVWQEAPQLPVDPHRDTILNAIEQHPVVVISGDTGCGKTTRIPQLLLERYVTEGRGARCNVIITQPRRISAVSVAQRVSHELGPSLRRNVGFQVRLESKPPSRGGALLFCTVGILLRKLQSNPSLEGVSHVIVDEVHERDVNTDFLLILLKGLQRLNPALRLVLMSATGDNERFSRYFGGCPVIKVPGFMYPVKEHYLEDILAKLGKHQYLHRHRHHESEDECALDLDLVTDLVLHIDARGEPGGILCFLPGWQEIKGVQQRLQEALGMHESKYLILPVHSNIPMMDQKAIFQQPPVGVRKIVLATNIAETSITINDIVHVVDSGLHKEERYDLKTKVSCLETVWVSRANVIQRRGRAGRCQSGFAYHLFPRSRLEKMVPFQVPEILRTPLENLVLQAKIHMPEKTAVEFLSKAVDSPNIKAVDEAVILLQEIGVLDQREYLTTLGQRLAHISTDPRLAKAIVLAAIFRCLHPLLVVVSCLTRDPFSSSLQNRAEVDKVKALLSHDSGSDHLAFVRAVAGWEEVLRWQDRSSRENYLEENLLYAPSLRFIHGLIKQFSENIYEAFLVGKPSDCTLASAQCNEYSEEEELVKGVLMAGLYPNLIQVRQGKVTRQGKFKPNSVTYRTKSGNILLHKSTINREATRLRSRWLTYFMAVKSNGSVFVRDSSQVHPLAVLLLTDGDVHIRDDGRRATISLSDSDLLRLEGDSRTVRLLKELRRALGRMVERSLRSELAALPPSVQEEHGQLLALLAELLRGPCGSFDVRKTADD
B4: Chaperonin containing TCP1, subunit 3 (gamma) (protein, UniProt P49368-1 1-545)
chain: MMGHRPVLVLSQNTKRESGRKVQSGNINAAKTIADIIRTCLGPKSMMKMLLDPMGGIVMTNDGNAILREIQVQHPAAKSMIEISRTQDEEVGDGTTSVIILAGEMLSVAEHFLEQQMHPTVVISAYRKALDDMISTLKKISIPVDISDSDMMLNIINSSITTKAISRWSSLACNIALDAVKMVQFEENGRKEIDIKKYARVEKIPGGIIEDSCVLRGVMINKDVTHPRMRRYIKNPRIVLLDSSLEYKKGESQTDIEITREEDFTRILQMEEEYIQQLCEDIIQLKPDVVITEKGISDLAQHYLMRANITAIRRVRKTDNNRIARACGARIVSRPEELREDDVGTGAGLLEIKKIGDEYFTFITDCKDPKACTILLRGASKEILSEVERNLQDAMQVCRNVLLDPQLVPGGGASEMAVAHALTEKSKAMTGVEQWPYRAVAQALEVIPRTLIQNCGASTIRLLTSLRAKHTQENCETWGVNGETGTLVDMKELGIWEPLAVKLQTYKTAVETAVLLLRIDDIVSGHKKKGDDQSRQGGAPDAGQE
B5: DEAD (Asp-Glu-Ala-Asp) box polypeptide 18 (protein, UniProt Q9NVP1 1-670)
chain: MSHLPMKLLRKKIEKRNLKLRQRNLKFQGASNLTLSETQNGDVSEETMGSRKVKKSKQKPMNVGLSETQNGGMSQEAVGNIKVTKSPQKSTVLTNGEAAMQSSNSESKKKKKKKRKMVNDAEPDTKKAKTENKGKSEEESAETTKETENNVEKPDNDEDESEVPSLPLGLTGAFEDTSFASLCNLVNENTLKAIKEMGFTNMTEIQHKSIRPLLEGRDLLAAAKTGSGKTLAFLIPAVELIVKLRFMPRNGTGVLILSPTRELAMQTFGVLKELMTHHVHTYGLIMGGSNRSAEAQKLGNGINIIVATPGRLLDHMQNTPGFMYKNLQCLVIDEADRILDVGFEEELKQIIKLLPTRRQTMLFSATQTRKVEDLARISLKKEPLYVGVDDDKANATVDGLEQGYVVCPSEKRFLLLFTFLKKNRKKKLMVFFSSCMSVKYHYELLNYIDLPVLAIHGKQKQNKRTTTFFQFCNADSGTLLCTDVAARGLDIPEVDWIVQYDPPDDPKEYIHRVGRTARGLNGRGHALLILRPEELGFLRYLKQSKVPLSEFDFSWSKISDIQSQLEKLIEKNYFLHKSAQEAYKSYIRAYDSHSLKQIFNVNNLNLPQVALSFGFKVPPFVDLNVNSNEGKQKKRGGGGGFGYQKTKKVEKSKIFKHISKKSSDSRQFSH
B6: Chaperonin containing TCP1, subunit 4 (delta) (protein, UniProt P50991-1 1-539)
chain: MPENVAPRSGATAGAAGGRGKGAYQDRDKPAQIRFSNISAAKAVADAIRTSLGPKGMDKMIQDGKGDVTITNDGATILKQMQVLHPAARMLVELSKAQDIEAGDGTTSVVIIAGSLLDSCTKLLQKGIHPTIISESFQKALEKGIEILTDMSRPVELSDRETLLNSATTSLNSKVVSQYSSLLSPMSVNAVMKVIDPATATSVDLRDIKIVKKLGGTIDDCELVEGLVLTQKVSNSGITRVEKAKIGLIQFCLSAPKTDMDNQIVVSDYAQMDRVLREERAYILNLVKQIKKTGCNVLLIQKSILRDALSDLALHFLNKMKIMVIKDIEREDIEFICKTIGTKPVAHIDQFTADMLGSAELAEEVNLNGSGKLLKITGCASPGKTVTIVVRGSNKLVIEEAERSIHDALCVIRCLVKKRALIAGGGAPEIELALRLTEYSRTLSGMESYCVRAFADAMEVIPSTLAENAGLNPISTVTELRNRHAQGEKTAGINVRKGGISNILEELVVQPLLVSVSALTLATETVRSILKIDDVVNTR
B7: Moloney leukemia virus 10, homolog (mouse) (protein, UniProt Q9HCE1-1 1-1003)
chain: MPSKFSCRQLREAGQCFESFLVVRGLDMETDRERLRTIYNRDFKISFGTPAPGFSSMLYGMKIANLAYVTKTRVRFFRLDRWADVRFPEKRRMKLGSDISKHHKSLLAKIFYDRAEYLHGKHGVDVEVQGPHEARDGQLLIRLDLNRKEVLTLRLRNGGTQSVTLTHLFPLCRTPQFAFYNEDQELPCPLGPGECYELHVHCKTSFVGYFPATVLWELLGPGESGSEGAGTFYIARFLAAVAHSPLAAQLKPMTPFKRTRITGNPVVTNRIEEGERPDRAKGYDLELSMALGTYYPPPRLRQLLPMLLQGTSIFTAPKEIAEIKAQLETALKWRNYEVKLRLLLHLEELQMEHDIRHYDLESVPMTWDPVDQNPRLLTLEVPGVTESRPSVLRGDHLFALLSSETHQEDPITYKGFVHKVELDRVKLSFSMSLLSRFVDGLTFKVNFTFNRQPLRVQHRALELTGRWLLWPMLFPVAPRDVPLLPSDVKLKLYDRSLESNPEQLQAMRHIVTGTTRPAPYIIFGPPGTGKTVTLVEAIKQVVKHLPKAHILACAPSNSGADLLCQRLRVHLPSSIYRLLAPSRDIRMVPEDIKPCCNWDAKKGEYVFPAKKKLQEYRVLITTLITAGRLVSAQFPIDHFTHIFIDEAGHCMEPESLVAIAGLMEVKETGDPGGQLVLAGDPRQLGPVLRSPLTQKHGLGYSLLERLLTYNSLYKKGPDGYDPQFITKLLRNYRSHPTILDIPNQLYYEGELQACADVVDRERFCRWAGLPRQGFPIIFHGVMGKDEREGNSPSFFNPEEAATVTSYLKLLLAPSSKKGKARLSPRSVGVISPYRKQVEKIRYCITKLDRELRGLDDIKDLKVGSVEEFQGQERSVILISTVRSSQSFVQLDLDFNLGFLKNPKRFNVAVTRAKALLIIVGNPLLLGHDPDWKVFLEFCKENGGYTGCPFPAKLDLQQGQNLLQGLSKLSPSTSGPHSHDYLPQEREGEGGLSLQVEPEWRNEL

Amino acid sequences for entries named in this document (tags omitted).
UniProt Q7Z2W4: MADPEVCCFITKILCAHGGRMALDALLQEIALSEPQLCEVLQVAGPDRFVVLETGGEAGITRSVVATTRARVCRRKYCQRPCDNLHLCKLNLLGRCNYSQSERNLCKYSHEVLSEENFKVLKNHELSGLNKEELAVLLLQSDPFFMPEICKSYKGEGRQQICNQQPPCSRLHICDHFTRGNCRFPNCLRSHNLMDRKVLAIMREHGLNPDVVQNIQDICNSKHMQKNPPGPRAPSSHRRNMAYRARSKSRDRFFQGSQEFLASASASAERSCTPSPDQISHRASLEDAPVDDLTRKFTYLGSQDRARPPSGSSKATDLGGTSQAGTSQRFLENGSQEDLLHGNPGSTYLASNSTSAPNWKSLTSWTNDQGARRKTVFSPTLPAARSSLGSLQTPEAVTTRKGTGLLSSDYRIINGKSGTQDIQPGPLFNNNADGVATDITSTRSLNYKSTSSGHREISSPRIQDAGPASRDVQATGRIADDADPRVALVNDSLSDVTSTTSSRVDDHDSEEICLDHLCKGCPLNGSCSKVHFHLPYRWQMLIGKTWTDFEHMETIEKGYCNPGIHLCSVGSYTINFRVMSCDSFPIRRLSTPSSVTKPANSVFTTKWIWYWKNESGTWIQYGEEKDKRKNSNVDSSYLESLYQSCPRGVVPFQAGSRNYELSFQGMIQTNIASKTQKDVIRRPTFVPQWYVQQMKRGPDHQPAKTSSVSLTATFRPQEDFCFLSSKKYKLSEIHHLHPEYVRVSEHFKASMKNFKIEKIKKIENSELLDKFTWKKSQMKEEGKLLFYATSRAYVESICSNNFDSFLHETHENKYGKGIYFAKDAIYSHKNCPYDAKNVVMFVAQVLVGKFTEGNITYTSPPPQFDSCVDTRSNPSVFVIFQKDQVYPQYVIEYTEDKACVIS

These are yes or no findings as the source states them, for the method shown. In cells and extracts the contact can be indirect. Here binding means that the protein was enriched with, or labelled near, the bait; the list need not be complete. Tags and fused reporters may be left off the sequences shown.

The target of the experiment is ZAP-L-FL (FLAG-tagged ZAP-L) (human) (UniProt Q7Z2W4). The experiment can be described thus: affinity purification with mass spectrometry; ZAP-L-FL or empty vector transfected in 293T; IP with α-FLAG agarose from whole cell lysates (sonication) in the presence or absence of 30 μg/ml RNase; tandem MS; hits: 3 or more peptides, two replicate IPs, not in vector control.
For B1, the binding entry is reported as “binds”. The value for B2 was “binds”; that for B3 was “binds”. The entry for B4 is “binds”.

For B5, the binding result is recorded as “binds”.

As for B6, the binding result was “binds”. The value for B7 was “binds”.

The values are drawn from article PMC4441479.
